Experimental data published in PubChem BioAssay AID662 (National Center for Advancing Translational Sciences (NCATS), 2007).
Values joined by “and” are separate entries in the source; they are usually repeats but may differ in a detail not shown here. Equal values may be shown once. Some of the results follow. These are further read-outs of the screen, such as a control signal, another cell line or another target. No call is given for them. Most of these compounds were active or inconclusive in the main read-out, so they are no random draw. The note in brackets gives the kind of curve behind each potency; many fits are weak.

Test: Cell signaling CRE-BLA (Fsk stim)
Settings: CHO CRE-bla reporter (cAMP response element driving beta-lactamase), forskolin EC10, beta-lactamase ratio; measured here: 460 nm blue channel
In short: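 Modulation of forskolin-driven signalling is measured in CHO cells carrying a CRE-controlled beta-lactamase reporter. Cells are stimulated with EC10 NKH 477 in the presence of titrated compound for 3 h at 37 °C, then loaded with CCF4 for 2 h at room temperature.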
With `O=c1c2ccccc2nc(-c2ccco2)n1-c1ccncc1` the AC50 was 20 µM [rising, single point].
In the case of `O=[N+]([O-])/C=C/c1ccccc1`, the AC50 is reported as 10 µM [rising, partial curve].
In the case of `O=C(c1cc(-c2ccncc2)nc2ccccc12)N1CCC2(CC1)OCCO2`, the AC50 is reported as 3.98 µM [falling, single point].
With `O=C(Cc1ccccc1)OCc1ccccc1` the AC50 was 0.501 µM [falling, full curve, poor fit].
For `CN(C)C(=S)SSC(=S)N(C)C`, the AC50 was 31.6 µM [falling, single point].
With `Cn1nc(-c2ccc(OCC(=O)N3CCN(Cc4ccccc4)CC3)cc2)c2ccccc2c1=O` the AC50 was 0.251 µM [rising, partial curve, poor fit].
For `Cc1cc(OCC(=O)Nc2cc(C)nn2-c2ccccn2)c2c3c(c(=O)oc2c1)CCC3`, the AC50 was 25.1 µM [rising, single point].
In the case of `Cc1nnc2ccc(-c3cccc(C(F)(F)F)c3)nn12`, the AC50 is reported as 15.8 µM [rising, partial curve, poor fit].
With `CN1Cc2c(ccc3c2OCO3)[C@@H]2[C@@H](O)Cc3cc4c(cc3[C@@H]21)OCO4` the AC50 was 12.6 µM [rising, partial curve] and 3.98 µM [rising, full curve].
In the case of `O=C1C[C@@H]2OCC=C3CN4CC[C@]56c7ccccc7N1[C@H]5[C@@H]2[C@H]3C[C@@H]46`, the AC50 is reported as 39.8 µM [falling, partial curve, poor fit].
With `Nc1c(C(=O)OC2CCCCC2)c2nc3ccccc3nc2n1CC1CCCO1` (stereo not given) the AC50 was 12.6 µM [rising, partial curve].
For `CCC(=NC1CC1)c1c(O)n(C2CCCCC2)c(=O)[nH]c1=O`, the AC50 was 10 µM [rising, partial curve].
In the case of `Nc1c(C(=O)NCCc2ccccc2)c2nc3ccccc3nc2n1CCN1CCOCC1`, the AC50 is reported as 12.6 µM [rising, partial curve].
For `c1cc2n(c1)-c1c(ccc3c1OCO3)CNC2c1ccc2c(c1)OCO2` (stereo not given), the AC50 was 5.01 µM [falling, full curve].
With `CCCOC(=O)COc1cc(C)cc2oc(=O)c3c(c12)CCC3` the AC50 was 1.26 µM [falling, partial curve].
With `c1ccc2cc3c(cc2c1)-c1cccc2cccc-3c12` the AC50 was 1 µM [rising, full curve].
In the case of `CCCCn1c(O)c(C(CC)=NCCc2ccccc2)c(=O)[nH]c1=O`, the AC50 is reported as 7.94 µM [rising, partial curve].
In the case of `Cc1c(C(=O)c2ccc3ccccc3c2)c2cccc3c2n1[C@H](CN1CCOCC1)CO3`, the AC50 is reported as 12.6 µM [falling, partial curve, poor fit].
In the case of `CC(C)NC[C@H](O)c1ccc(N)c(C#N)c1`, the AC50 is reported as 20 µM [falling, single point].
In the case of `CCOC(=O)c1c(C)n(Cc2ccccc2)c2ccc(OCC(O)CN3C(=O)CNC3=O)cc12` (stereo not given), the AC50 is reported as 12.6 µM [rising, partial curve].
With `CCCCCCN=C(CC)c1c(O)n(CCCC)c(=O)[nH]c1=O` the AC50 was 7.94 µM [rising, partial curve].
In the case of `CCOC(=O)c1cn2nc(OP(=S)(OCC)OCC)cc2nc1C`, the AC50 is reported as 10 µM [rising, single point].
In the case of `C=C1[C@@H]2CC[C@H]3[C@@]4(C)C[C@@H](O[C@@H]5O[C@H](CO)[C@H](OS(=O)(=O)O)[C@@H](OS(=O)(=O)O)[C@@H]5OC(=O)CC(C)C)C[C@@H](C(=O)O)[C@H]4CC[C@@]3(C2)[C@H]1O`, the AC50 is reported as 5.01 µM [rising, single point].
With `CN1Cc2ccccc2[C@@H]2c3cccc4[nH]cc(c34)C[C@H]21` the AC50 was 12.6 µM [rising, full curve].
With `N[C@@]1(C(=O)O)CC[C@H](C(=O)O)C1` the AC50 was 10 µM [falling, full curve].
In the case of `C[C@H]1C[C@H](C)C(=O)[C@@H]([C@H](O)CC2CC(=O)NC(=O)C2)C1`, the AC50 is reported as 15.8 µM [falling, partial curve, poor fit].
In the case of `C[N+]1=Cc2cc3c(cc2CC1)OCO3`, the AC50 is reported as 20 µM [rising, partial curve].
For `C=CCN1C[C@H](C)N([C@H](c2ccc(C(=O)N(CC)CC)cc2)c2cccc(O)c2)C[C@H]1C`, the AC50 was 31.6 µM [falling, single point].
In the case of `CC(=O)Nc1ccccc1OC(=O)N(C)C`, the AC50 is reported as 25.1 µM [falling, single point].
For `Cc1cccnc1NC1=NCC(C)S1` (stereo not given), the AC50 was 0.00501 µM [falling, full curve, poor fit].
In the case of `CCCCn1c(NC(=O)c2ccco2)c(C(=O)OCC)c2nc3ccccc3nc21`, the AC50 is reported as 12.6 µM [rising, partial curve].
For `COc1ccc2c(c1)CC1(CN2C)C(=O)NC(=O)N(CCc2ccccc2)C1=O` (stereo not given), the AC50 was 3.98 µM [rising, single point].
With `Fc1ccccc1N1CCN(Cc2ccc3c(c2)OCO3)CC1` the AC50 was 1 µM [falling, full curve].
With `O=C(c1cc(-c2cccnc2)nc2ccccc12)N1CCC2(CC1)OCCO2` the AC50 was 25.1 µM [rising, single point].
With `O=C(COc1ccccc1)N1CCN(CC2CC3C=CC2C3)CC1` (stereo not given) the AC50 was 0.126 µM [falling, single point].
With `CCN(CC)CCO[C@H]1CC[C@@]2(C)C(=CC[C@@H]3[C@H]2CC[C@]2(C)C(=O)CC[C@H]32)C1` the AC50 was 7.94 µM [falling, partial curve, poor fit].
For `CC1CN(O)C2CCc3nonc3C12O` (stereo not given), the AC50 was 1.58 µM [falling, partial curve, poor fit].
For `Cc1ccc(Cn2nnnc2CN2CCC(n3nnc4cc(C(F)(F)F)ccc43)CC2)cc1`, the AC50 was 10 µM [rising, partial curve].
With `CCCCn1c(O)c(C(C)=NC(C)c2ccccc2)c(=O)[nH]c1=O` (stereo not given) the AC50 was 12.6 µM [rising, single point].
For `Cn1cc(C(=O)N2CCC3(CC2)OCCO3)c2c3ccccc3n(C)c2c1=O`, the AC50 was 20 µM [rising, single point].
For `ClC1=C(Cl)C2(Cl)C3C(Cl)C(Cl)CC3C1(Cl)C2(Cl)Cl` (stereo not given), the AC50 was 0.794 µM [rising, full curve].
With `CC1CN=C(Nc2cccc3ccccc23)S1` (stereo not given) the AC50 was 0.1 µM [falling, partial curve].
In the case of `C/C(O)=C(/C#N)C(=O)Nc1cc(Br)ccc1Br`, the AC50 is reported as 10 µM [falling, partial curve, poor fit].
With `O=C(Oc1ccccc1)N1CCC[C@@]2(CCN(Cc3cc(C(F)(F)F)cc(C(F)(F)F)c3)C2)C1` the AC50 was 10 µM [rising, partial curve].
With `N#CC1=C(N)Oc2c(c(=O)oc3ccccc23)C1c1ccc(OC(=O)N2CCOCC2)cc1` (stereo not given) the AC50 was 5.01 µM [rising, partial curve].
For `CCC(C)NC(=O)c1c(N)n(Cc2ccc3c(c2)OCO3)c2nc3ccccc3nc12` (stereo not given), the AC50 was 10 µM [rising, partial curve].
In the case of `CC(C)OCCCNC(=O)c1c(N)n(CC2CCCO2)c2nc3ccccc3nc12` (stereo not given), the AC50 is reported as 12.6 µM [rising, partial curve].
In the case of `CCCC1(CCC)C(=O)NC(=NCc2ccccc2)NC1=O`, the AC50 is reported as 25.1 µM [falling, single point].
For `C=CCn1c(O)c(C(CC)=NCc2cc(OC)cc(OC)c2)c(=O)[nH]c1=O`, the AC50 was 5.01 µM [rising, partial curve].
With `CC1=NCCc2c1[nH]c1cc(O)ccc21` the AC50 was 10 µM [rising, partial curve].
In the case of `COC(=O)C(O)(c1cn(C)c2ccccc12)C(F)(F)F` (stereo not given), the AC50 is reported as 15.8 µM [falling, partial curve, poor fit].
For `CN(C(=O)Cc1ccc(Cl)c(Cl)c1)[C@H](CN1CCCC1)c1ccccc1`, the AC50 was 7.94 µM [rising, partial curve, poor fit].
For `CCCN(CCC)[C@@H]1CCc2ccc(O)cc2C1`, the AC50 was 0.1 µM [rising, full curve, poor fit].
For `CCCCn1c(O)c(C(CC)=NCc2ccc3c(c2)OCO3)c(=O)[nH]c1=O`, the AC50 was 3.16 µM [rising, partial curve].
In the case of `COc1ccc(-c2nc(CS(=O)CC(=O)N3CCC4(CC3)OCCO4)c(C)o2)cc1` (stereo not given), the AC50 is reported as 0.02 µM [falling, full curve].
In the case of `O=C(CCCCCn1c(=S)[nH]c2ccccc2c1=O)N1CCC2(CC1)OCCO2`, the AC50 is reported as 0.1 µM [rising, full curve].
With `O=C(Cn1ncc2c3ccccc3n(Cc3cccc(Cl)c3)c2c1=O)N1CCC2(CC1)OCCO2` the AC50 was 0.1 µM [falling, partial curve].
With `O=C1CC(N2CC=C(c3ccccc3)CC2)C(=O)N1c1ccc(F)cc1` (stereo not given) the AC50 was 12.6 µM [falling, single point].
With `CC1CN=C(NCc2ccncc2)S1` (stereo not given) the AC50 was 5.01 µM [falling, single point].
For `CCOC(=O)c1ccc(NC(=O)C2C3C=CC(O3)C2C(=O)O)cc1` (stereo not given), the AC50 was 0.316 µM [rising, partial curve].
With `CCOC(=O)c1ccc(N2C(=O)CC(N3CC=C(c4ccc(F)cc4)CC3)C2=O)cc1` (stereo not given) the AC50 was 12.6 µM [falling, single point].
In the case of `CC(=NCCN1CCOCC1)c1c(O)n(C2CCCCC2)c(=O)[nH]c1=O`, the AC50 is reported as 5.01 µM [falling, single point].
For `CN(CCc1ccc(Cl)c(Cl)c1)[C@H]1CCCC[C@H]1N1CCCC1`, the AC50 was 10 µM [falling, partial curve, poor fit].
For `COP(=S)(OC)SCn1nnc2ccccc2c1=O`, the AC50 was 10 µM [falling, partial curve].
In the case of `CC12CCCCC1=NC(c1ccc(Br)cc1)N2O` (stereo not given), the AC50 is reported as 0.794 µM [falling, partial curve, poor fit].
